In publication PMC6885686:
Where cells or extracts were used, other partners may take part. For some of these results: A negative result means that nothing was seen under these conditions. For some of these results: The exact form of at least one protein or probe is not confirmed.

Legend:
Experiment in all cases: EMSA
Conditions in all cases: EMSA: 5 ug total lysate in RIPA with RNase inhibitor, 2 ug tRNA, 1 uM unlabelled (GU)x6 and […] biotin-(GU)x6, 30 min room temperature, 6% native PAGE; protein in a lysate after overexpression; residues 1-414; protein details: N-terminal GFP (pEGFP-C1)
GFP-TDP-43 D169G = GFP-TDP-43 D169G (UniProt Q13148)
GFP-TDP-43 K181A = GFP-TDP-43 K181A (UniProt Q13148)
GFP-TDP-43 K181E = GFP-TDP-43 K181E (UniProt Q13148)
GFP-TDP-43 K263E = GFP-TDP-43 K263E (UniProt Q13148)
GFP-TDP-43 M337V = GFP-TDP-43 M337V (UniProt Q13148)
GFP-TDP-43 Q331K = GFP-TDP-43 Q331K (UniProt Q13148)
GFP-TDP-43 WT = GFP-TDP-43 WT (UniProt Q13148)

CGUGUGUGUGUGUGGU [(GU)x6 RNA]: binds (GFP-TDP-43 D169G); binds (GFP-TDP-43 K181A); no binding (GFP-TDP-43 K181E). CGUGUGUGUGUGUGGU [(GU)x6 RNA]: no binding (GFP-TDP-43 K263E); binds (GFP-TDP-43 M337V); binds (GFP-TDP-43 Q331K). CGUGUGUGUGUGUGGU [(GU)x6 RNA]: binds (GFP-TDP-43 WT).
